Assay results: patent publication US20230220458
A negative result means that nothing was seen under these conditions. For some of these results: The exact form of at least one protein or probe is not confirmed.

Legend:
[1] = test system: HhaI restriction endonuclease; assay: enzyme reaction in vitro; details: no HhaI site; stays intact, used as control locus; purified recombinant protein
[2] = biological target: HinP1I restriction endonuclease (UniProt Q5I6E6); assay: enzyme reaction in vitro; details: purified recombinant protein, protein details: New England Biolabs

AGACTAACTTTTCTCTTGTACAGAATCATCAGGCTAAATTTTTGGCATTATTTCAGTCCT (double strand) [control locus without HhaI/HinP1I site]
functional effect [1]: not active
functional effect ([2]; no recognition site, internal reference stays intact): not active

AGTAGCGCCCACTGAGCGGTTTTTCAGTTGCTGCACCGTTCTTAGCGCCCAACGGAACGTTTCCCGTACGCGGAGTCCATAAGTT (double strand) [chr5 test locus, methylated HCT-15 genomic DNA]
functional effect ([2]; 5mC at CpG (bisulfite sequencing), CutSmart, 37 C 2 h, methylated locus protected, amplified in 34/34 replicates): not active

AGTAGCGCCCACTGAGCGGTTTTTCAGTTGCTGCACCGTTCTTAGCGCCCAACGGAACGTTTCCCGTACGCGGAGTCCATAAGTT (double strand) [chr5 test locus, unmethylated plasmid insert]
functional effect ([2]; CutSmart, 37 C 2 h, no amplification in 34/34 replicates after digestion): active
